From patent publication US20180214568A1
No constants are given. Whether binding was seen depends on the method and setting. Some results given as binding are weak or reduced against the parent protein; the word gives no strength.

Chains of the proteins cited; added tags and fusions are not shown. Residues count along the entry.
UniProt P13595, residues 20-711: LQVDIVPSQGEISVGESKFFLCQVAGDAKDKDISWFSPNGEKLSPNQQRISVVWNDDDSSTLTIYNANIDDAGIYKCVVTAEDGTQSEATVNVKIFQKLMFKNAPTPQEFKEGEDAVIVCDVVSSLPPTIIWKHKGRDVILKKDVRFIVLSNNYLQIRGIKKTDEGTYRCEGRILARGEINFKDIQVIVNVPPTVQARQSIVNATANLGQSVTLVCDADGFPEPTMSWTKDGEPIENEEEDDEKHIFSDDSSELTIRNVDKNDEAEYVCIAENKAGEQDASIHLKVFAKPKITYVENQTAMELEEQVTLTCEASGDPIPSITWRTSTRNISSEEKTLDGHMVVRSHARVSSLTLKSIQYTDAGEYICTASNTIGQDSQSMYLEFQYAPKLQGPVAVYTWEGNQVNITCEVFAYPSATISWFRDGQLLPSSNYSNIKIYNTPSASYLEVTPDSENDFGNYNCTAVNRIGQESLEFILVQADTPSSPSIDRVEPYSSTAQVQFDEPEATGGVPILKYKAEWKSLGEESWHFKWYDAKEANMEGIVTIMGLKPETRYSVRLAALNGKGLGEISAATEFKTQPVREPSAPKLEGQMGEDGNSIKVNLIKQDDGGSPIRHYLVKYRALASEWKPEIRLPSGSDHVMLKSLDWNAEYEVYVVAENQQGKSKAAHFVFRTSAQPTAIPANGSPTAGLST

Experiments:
mouse CD56 (mouse) [1] = target: mouse CD56 (mouse) (UniProt P13595); assay: ELISA on coated mouse CD56 ectodomain, IgG titrated, OD405
mouse CD56 (mouse) [2] = target: mouse CD56 (mouse) (UniProt P13595); assay: ELISA

B1: m906 IgG1 (antibody, V domains shown)
VH: EVQLVQSGAEVKKPGSSVKVSCKASGGTFTGYYMHWVRQAPGQGLEWMGWINPNSGGTNYAQKFQGRVTMTRDTSISTAYMELSRLRSDDTAVYYCARDLSSGYSGYFDYWGQGTLVTVSS
VL: DVVMTQSPLSLPVTPGEPASISCRSSQSLLHSNGYNFLDWYLQKPGQSPQLLIYLGSNRASGVPDRFSGSGSGTDFTLKISRVEADDVGVYYCMQSLQTPWTFGHGTKVEIKR
**Q.** How did the binding (mouse CD56 (mouse) [1]) turn out when B1 was run?
**A.** The binding was “binds”.

**Q.** And the binding (mouse CD56 (mouse) [2])?
**A.** The binding was “binds”.
